Source: PubChem BioAssay AID504467 (National Center for Advancing Translational Sciences (NCATS), 2011)
Screen size: about 330,000 compounds; about 7,700 (2.3%) were called active. Inconclusive means that the source gave no clear call. Such entries were picked first, then a sample of the others. The call rests on the fitted dose curve; in most records, active means well fitted inhibition curve with a large enough effect; inconclusive means small, poorly fitted or top-dose-only effect, or effect the other way; inactive means flat fitted curve, though single readings scatter. Potencies of inconclusive entries are doubtful fits and often do not repeat.
Potency means the concentration at half of the fitted maximal effect.

Experiment: qHTS screen for small molecules that inhibit ELG1-dependent DNA repair in human embryonic kidney (HEK293T) cells expressing luciferase-tagged ELG1; further: nearly all actives have a fitted effect of over 55% in size
Conditions: HEK293T ELG1-luciferase reporter, luminescence, 16 h, DNA damage induced by 5-fluorouridine; series mostly up to 46.1 µM
Summary of the method: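 Luminescence from the luciferase reporter, measured 30 min after ONE-Glo reagent at room temperature, was the read-out. Beforehand, 2,000 cells per well were exposed for 16 hr at 37 °C to 5-fluorouridine together with compound or vehicle.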
In the case of `Cc1cccc(NC(=O)COC(=O)c2cccs2)c1C`, the Potency was “inactive”. In the case of `CNc1cccc2c1C(=O)c1ccccc1C2=O`, the Potency was inconclusive: 11.6 µM [activator, partial curve]. For `Cc1ccc2nc(SCC(=O)OCc3ccccc3)nc(=O)n2c1`, the Potency was inconclusive: 6.51 µM [activator, single point]. In the case of `CCOC(=O)c1c(NC(=O)CSc2nnc(C)s2)sc2c1CCCCC2`, the Potency was inconclusive: 29.1 µM [inhibitor, single point]. With `CCOC(=O)c1cnn(-c2ccccc2)c1N` the Potency was inconclusive: 20.6 µM [activator, single point]. In the case of `Cc1nc2cc(NC(=O)NC3CC3)ccc2n1C`, the Potency was inconclusive: 23.1 µM [activator, partial curve]. With `CNC(=O)c1ccccc1NC(=O)c1cccc(S(=O)(=O)N2CCCCC2)c1` the Potency was inconclusive: 11.6 µM [inhibitor, partial curve]. For `O=C(C1=C[C@H](C2CC2)C[C@H](OCc2ccc(CO)cc2)O1)N1CCN(Cc2ccc3c(c2)OCO3)CC1`, the Potency was active: 6.51 µM. For `C/C(=N\NC(=O)c1ccc(N/N=C(\C)c2ccc(O)cc2)cc1)c1ccc(O)cc1`, the Potency was active: 8.2 µM. For `Cc1nn(Cc2cccc(C(=O)NCC(C)C)c2)c(C)c1Br`, the Potency was inconclusive: 16.4 µM [inhibitor, partial curve, poor fit]. For `CCCNC(=O)C(Cc1ccc(Cl)cc1)NC(=O)c1ccc(-c2ccccc2)cc1` (centres undefined), the Potency was inconclusive: 23.1 µM [activator, single point]. With `O=C(Nc1c2c(nc3ccccc13)CCCC2)c1ccccc1Cl` the Potency was “inactive”. In the case of `Cc1ccc(C)c(NC(=O)c2oc(=O)c3ccccc3c2-c2ccccc2)c1`, the Potency was inconclusive: 29.1 µM [inhibitor, single point]. For `Cc1nnc(NC(=O)c2sc3nc(-c4cccs4)cc(C(F)(F)F)c3c2N)s1`, the Potency was inconclusive: 16.4 µM [activator, single point]. In the case of `COc1ccc2[nH]c3c(=O)n(/N=C/[C@H]4C(C)C=C(C)CC4C)c(=O)[nH]c3c2c1` (some centres undefined), the Potency was inconclusive: 8.2 µM [inhibitor, partial curve]. For `Cc1ccccc1NC(=O)CSc1ccc(-c2ccc(-n3cccn3)cc2)nn1`, the Potency was “inactive”. For `Cc1nc2cc(N=NC3=C(O)CCCC3=O)ccc2s1`, the Potency was inconclusive: 8.2 µM [activator, partial curve]. In the case of `Cc1cccc(C(=O)Oc2csc(=S)n2C(=O)c2cccc(C)c2)c1`, the Potency was “inactive”. For `COc1ccc(Oc2nc(SC)nc3ccccc23)cc1`, the Potency was “inactive”. With `COc1ccc(N2CCN(C(=O)c3ccc(COc4ccc5c(C)cc(=O)oc5c4)cc3)CC2)cc1` the Potency was inconclusive: 13 µM [inhibitor, partial curve, poor fit]. With `CC(C)N(CCO)Cc1nc(C(c2ccccc2)c2ccccc2)no1` the Potency was inconclusive: 6.51 µM [inhibitor, single point]. In the case of `O=C(Cc1ccccc1)N[C@@H](Cc1ccccc1)c1nc2ccccc2[nH]1`, the Potency was inconclusive: 13 µM [inhibitor, partial curve, poor fit]. For `COc1cccc(NC(=O)COC(=O)c2ccccc2F)c1`, the Potency was “inactive”. In the case of `O=C(N/N=C/c1cccc(Oc2ccccc2)c1)c1ccccc1F`, the Potency was inconclusive: 20.6 µM [activator, partial curve]. With `CC(C)CN(CC(C)C)C(=O)CCCC(=O)N(CC(C)C)CC(C)C` the Potency was “inactive”. For `O=C(CCC(=O)N1CCOCC1)NCCc1ccc(Cl)cc1Cl`, the Potency was “inactive”. With `Cc1cccc(C)c1OCC(=O)N=Nc1c(O)[nH]c2ccc(Br)cc12` the Potency was inconclusive: 20.6 µM [inhibitor, single point]. In the case of `Cc1ccccc1C(OCCN(C(C)C)C(C)C)c1ccccc1` (centres undefined), the Potency was inconclusive: 6.51 µM [inhibitor, partial curve, poor fit]. For `O=C1/C(=C\c2ccc(O)c(O)c2)SC(=S)N1Cc1ccccc1`, the Potency was inconclusive: 2.31 µM [inhibitor, partial curve, poor fit]. For `CCn1cc(C(=O)N2CC=C(c3ccccc3)CC2)c(=O)c2ccc(C)nc21`, the Potency was inconclusive: 29.1 µM [inhibitor, single point]. In the case of `COc1ccc(C(=O)NC2CCCc3c2cnn3-c2ccccc2F)cc1OC` (centres undefined), the Potency was inconclusive: 2.06 µM [inhibitor, full curve]. For `Cc1ccc(C)c(Cn2nnc(C(=O)Nc3ccc4c(c3)OCCO4)c2N)c1`, the Potency was inconclusive: 18.3 µM [activator, partial curve, poor fit]. In the case of `Cc1nn(-c2ccccc2)c(N)c1C1(O)C(=O)N(C(C)C)c2ccccc21` (centres undefined), the Potency was “inactive”. With `O=C(C(NS(=O)(=O)c1cccs1)c1ccccc1)N1CCN(c2ccccc2F)CC1` (centres undefined) the Potency was “inactive”. In the case of `C/C(=N/Nc1nc(-c2ccccc2)c(CC(=O)O)s1)c1ccccc1`, the Potency was inconclusive: 5.17 µM [activator, full curve]. In the case of `Cc1ccc(SCc2nnc(N)s2)cc1`, the Potency was inconclusive: 10.3 µM [activator, partial curve, poor fit]. With `COc1ccc(N2CCN(C(=O)C3CCCN(S(=O)(=O)c4ccc5c(c4)oc(=O)n5C)C3)CC2)cc1` (centres undefined) the Potency was “inactive”. In the case of `CNC(=O)c1c(NC(=O)C2=COCCO2)sc2c1CCC(C)C2` (centres undefined), the Potency was inconclusive: 14.6 µM [activator, partial curve]. In the case of `O=C(NCCC1CCCCN1S(=O)(=O)c1ccccc1)C(=O)NCc1ccc(F)cc1` (centres undefined), the Potency was inconclusive: 25.9 µM [inhibitor, single point]. In the case of `O=C(COc1ccc(Br)cc1Cl)NC1CCN(Cc2ccccc2)CC1`, the Potency was “inactive”. In the case of `O=C1/C(=C/c2cccnc2)SC(=S)N1Nc1ccccc1`, the Potency was inconclusive: 29.1 µM [inhibitor, single point]. With `CCn1c2ccccc2c2cc(C3C(C#N)=C(C)NC(C)=C3C#N)ccc21` the Potency was “inactive”. In the case of `CN(C)S(=O)(=O)c1ccc(NC(=O)c2ccc3ncsc3c2)cc1`, the Potency was inconclusive: 20.6 µM [activator, partial curve]. With `CN(C)CCNC(=O)C(=O)Nc1ccc2c(c1)N(S(=O)(=O)c1cccs1)CCC2` the Potency was inconclusive: 1.16 µM [inhibitor, single point].
